# Paper PMC2266940
# No constants are given. Whether binding was seen depends on the method and setting. Binding seen in cells or lysates may run through a third protein. For some of these results: Binding can be weak; no strength is given. For some of these results: Sequences can lack the tags named with a protein.
# Key:
# ETO-V5 = molecular target: T1, ETO-V5 (UniProt Q06455); experiment: co-IP; COS-7 cells co-transfected with V5-tagged ETO homologues and hSIN3B; IP and Western with α-V5 and α-hSIN3B
# T1 sequence: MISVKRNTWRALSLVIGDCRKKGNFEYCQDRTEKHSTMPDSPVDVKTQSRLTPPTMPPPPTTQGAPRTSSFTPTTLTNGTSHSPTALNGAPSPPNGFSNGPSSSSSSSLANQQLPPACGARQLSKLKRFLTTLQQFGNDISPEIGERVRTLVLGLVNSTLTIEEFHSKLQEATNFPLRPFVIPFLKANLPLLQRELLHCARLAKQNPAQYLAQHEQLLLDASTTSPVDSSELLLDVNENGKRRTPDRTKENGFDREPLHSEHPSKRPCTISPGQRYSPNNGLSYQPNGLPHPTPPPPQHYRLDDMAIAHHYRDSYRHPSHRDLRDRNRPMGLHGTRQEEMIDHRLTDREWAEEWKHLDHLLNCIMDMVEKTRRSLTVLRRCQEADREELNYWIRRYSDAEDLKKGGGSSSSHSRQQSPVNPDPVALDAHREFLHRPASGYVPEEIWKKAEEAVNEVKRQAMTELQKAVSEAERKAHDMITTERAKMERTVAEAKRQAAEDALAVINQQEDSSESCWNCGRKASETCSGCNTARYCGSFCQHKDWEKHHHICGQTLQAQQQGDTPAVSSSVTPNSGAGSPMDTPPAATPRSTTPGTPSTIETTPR
# MTGR1-V5 = molecular target: T2, MTGR1-V5 (UniProt O43439); experiment: as above
# T2 sequence: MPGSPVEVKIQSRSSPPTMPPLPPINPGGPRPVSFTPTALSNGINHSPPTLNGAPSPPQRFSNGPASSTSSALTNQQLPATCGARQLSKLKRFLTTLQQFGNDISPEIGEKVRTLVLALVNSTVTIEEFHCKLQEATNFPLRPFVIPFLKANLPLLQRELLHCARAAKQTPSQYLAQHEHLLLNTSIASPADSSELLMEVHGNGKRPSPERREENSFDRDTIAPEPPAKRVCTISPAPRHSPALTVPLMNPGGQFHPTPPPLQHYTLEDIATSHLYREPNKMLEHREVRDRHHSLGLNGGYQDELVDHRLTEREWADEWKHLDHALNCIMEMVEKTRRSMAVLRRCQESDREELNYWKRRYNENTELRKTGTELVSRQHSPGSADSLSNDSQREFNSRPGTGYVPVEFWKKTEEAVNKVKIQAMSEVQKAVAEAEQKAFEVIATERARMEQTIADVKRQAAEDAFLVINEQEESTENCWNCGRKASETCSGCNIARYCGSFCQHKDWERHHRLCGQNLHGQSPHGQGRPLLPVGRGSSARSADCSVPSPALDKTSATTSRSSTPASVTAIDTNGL
# MTG16-V5 = molecular target: T3, MTG16-V5 (UniProt O75081); experiment: as above
# T3 sequence: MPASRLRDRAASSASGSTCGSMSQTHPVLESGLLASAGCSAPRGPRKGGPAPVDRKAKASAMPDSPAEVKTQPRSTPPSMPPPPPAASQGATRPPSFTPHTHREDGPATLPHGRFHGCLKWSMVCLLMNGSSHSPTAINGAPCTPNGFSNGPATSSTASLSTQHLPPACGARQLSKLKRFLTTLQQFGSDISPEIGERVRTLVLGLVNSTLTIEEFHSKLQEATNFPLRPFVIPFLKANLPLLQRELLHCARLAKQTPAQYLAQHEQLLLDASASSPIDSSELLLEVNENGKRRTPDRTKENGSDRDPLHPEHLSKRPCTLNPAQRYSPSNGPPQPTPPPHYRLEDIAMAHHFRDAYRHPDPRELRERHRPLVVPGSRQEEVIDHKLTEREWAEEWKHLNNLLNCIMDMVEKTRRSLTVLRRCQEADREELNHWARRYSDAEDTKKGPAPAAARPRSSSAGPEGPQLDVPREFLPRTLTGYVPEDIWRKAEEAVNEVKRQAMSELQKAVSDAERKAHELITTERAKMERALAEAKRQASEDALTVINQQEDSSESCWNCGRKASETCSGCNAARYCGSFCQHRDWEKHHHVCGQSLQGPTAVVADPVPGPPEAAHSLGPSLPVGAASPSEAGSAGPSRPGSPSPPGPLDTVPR
# [1] = molecular target: T4, MTG16 (myeloid-transforming gene 16) (UniProt O75081); experiment: co-IP; COS-7 cells co-transfected with pCMV5 constructs; lysis buffer 250 mM NaCl, 20 mM Na-phosphate, 30 mM Na-pyrophosphate (pH 7.0), 5 mM EDTA, 0.1% NP-40; IP overnight with 1 ug α-hSIN3B, α-ETO, α-MTGR1 or α-MTG16 and protein A-Sepharose; Western blot
# T4 sequence: T3 sequence
# ETO (eight twenty-one) = molecular target: T5, ETO (eight twenty-one) (UniProt Q06455); experiment: as above
# T5 sequence: T1 sequence
# [2] = molecular target: T6, ETO lacking 30 amino-terminal aminoacids (UniProt Q06455); experiment: as above
# T6 sequence: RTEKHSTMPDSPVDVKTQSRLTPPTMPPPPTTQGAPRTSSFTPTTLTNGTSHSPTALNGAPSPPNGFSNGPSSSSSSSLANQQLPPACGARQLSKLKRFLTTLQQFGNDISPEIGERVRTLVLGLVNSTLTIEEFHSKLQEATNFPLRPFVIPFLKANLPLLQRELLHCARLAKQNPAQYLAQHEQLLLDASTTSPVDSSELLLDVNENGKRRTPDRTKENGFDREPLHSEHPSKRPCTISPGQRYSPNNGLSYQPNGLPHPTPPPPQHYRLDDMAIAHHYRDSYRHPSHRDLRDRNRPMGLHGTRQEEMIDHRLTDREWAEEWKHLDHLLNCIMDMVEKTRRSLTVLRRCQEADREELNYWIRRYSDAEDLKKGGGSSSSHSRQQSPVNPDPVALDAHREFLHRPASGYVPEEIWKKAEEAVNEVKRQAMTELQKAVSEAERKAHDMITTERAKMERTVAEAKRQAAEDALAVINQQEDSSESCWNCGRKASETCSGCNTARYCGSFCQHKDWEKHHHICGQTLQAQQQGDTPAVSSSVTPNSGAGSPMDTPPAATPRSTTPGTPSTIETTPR
# [3] = molecular target: T7, MTGR1 (MTG-related protein 1) (UniProt O43439); experiment: as above
# T7 sequence: T2 sequence
substance,measurement,setting,value
human SIN3B,binding,ETO-V5,binds
same,binding,MTGR1-V5,no binding
same,binding,MTG16-V5,binds
same,binding,[1],binds
same,binding,ETO (eight twenty-one),binds
same,binding,[2],no binding
same,binding,[3],no binding
